For some of these results: For expression read-outs the peptide stands for its source gene, whose mRNA was measured; the gene is not named for every peptide.
Legend:
[1] = tested on: source genes (mRNA); assay: Expression profiling of source genes by in-house RNASeq of tumor and normal tissues (Table 18, FIG. 2); set-up: species or system human; key: very highly over-expressed in tumors compared to a panel of normal tissues (+++); highly over-expressed in tumors compared to a panel of normal tissues (++); over-expressed in tumors compared to a panel of normal tissues (+); conditions: source gene of peptide; for Expression score AML: acute myeloid leukemia (N = 11) vs panel of normal tissues; for Expression score OSCAR: esophageal cancer incl. gastric-esophageal junction (N = 11) vs panel of normal tissues; for Expression score GB: glioblastoma (N = 24) vs panel of normal tissues; for Expression score NHL: non-Hodgkin lymphoma (N = 10) vs panel of normal tissues; for Expression score OC: ovarian cancer (N = 12) vs panel of normal tissues; for Expression score SCLC: small cell lung cancer (N = 10) vs panel of normal tissues; for Expression score UBC: urinary bladder cancer (N = 10) vs panel of normal tissues
[2] = tested on: source genes (mRNA); assay: Gene and exon expression of source genes, TCGA tumor samples compared with normal tissue samples (Lonsdale, 2013) (Table 17); set-up: species or system human; conditions: tumor expression more than 2-fold above highest 75% percentile of high and medium risk normal tissues; for Target coverage: over-expression category of source gene, LAML: Acute Myeloid Leukemia (N = 173); for Target coverage: over-expression category of source gene, BLCA: Bladder urothelial carcinoma (N = 408); for Target coverage: over-expression category of source gene, BRCA: Breast cancer (N = 1104); for Target coverage: over-expression category of source gene, CHOL: Cholangiocarcinoma (N = 36); for Target coverage: over-expression category of source gene, KIRC: Clear cell kidney carcinoma (N = 534); for Target coverage: over-expression category of source gene, READ: Colon and rectal adenocarcinoma (N = 167); for Target coverage: over-expression category of source gene, COAD: Colon and rectal adenocarcinoma (N = 462); for Target coverage: over-expression category of source gene, ESCA: Esophageal cancer (N = 185); for Target coverage: over-expression category of source gene, GBM: Glioblastoma multiforme (N = 169); for Target coverage: over-expression category of source gene, LIHC: Liver hepatocellular carcinoma (N = 374); for Target coverage: over-expression category of source gene, LGG: Lower grade glioma (N = 534); for Target coverage: over-expression category of source gene, LUAD: Lung adenocarcinoma (N = 517); for Target coverage: over-expression category of source gene, LUSC: Lung squamous cell carcinoma (N = 503); for Target coverage: over-expression category of source gene, DLBC: Lymphoid neoplasm diffuse large B-cell lymphoma (N = 48); for Target coverage: over-expression category of source gene, OV: Ovarian serous cystadenocarcinoma (N = 309); for Target coverage: over-expression category of source gene, PAAD: Pancreatic ductal adenocarcinoma (N = 179); for Target coverage: over-expression category of source gene, KIRP: Papillary kidney carcinoma (N = 291); for Target coverage: over-expression category of source gene, SKCM: Skin cutaneous melanoma (N = 473); for Target coverage: over-expression category of source gene, STAD: Stomach adenocarcinoma (N = 415); for Target coverage: over-expression category of source gene, UCEC: Uterine corpus endometrial carcinoma (N = 546)
[3] = tested on: HLA-A*24; assay: Identification and relative LC-MS quantitation of HLA-A*24-presented tumor-associated peptides on tissue samples (presentation profiles, Tables 14A, 14B, 16, FIG. 1); set-up: species or system human; key to Presentation score GC / Presentation score NSCLC / Presentation score PCA / Presentation score GB / Presentation score HCC / Presentation score RCC: specifically presented on tumors (++++); very highly over-presented on tumors compared to a panel of normal tissues (+++); highly over-presented on tumors compared to a panel of normal tissues (++); over-presented on tumors compared to a panel of normal tissues (+); conditions: for Presentation score GB: glioblastoma (N = 18) vs panel of normal tissues (N = 70); for Presentation score NSCLC: non-small cell lung cancer (N = 91) vs panel of normal tissues (N = 70); for Peptide Presentation on cancer entities: Table 14A, HLA-A*24-binding tumor-associated peptides, cancer entities on which the peptide was found presented; for Presentation score PCA: prostate cancer (N = 40) vs panel of normal tissues (N = 70)

268: peptide found in TYMS (gene looked up) (QYLGQIQHI; listed as Homo sapiens) [compound 268]
Expression score AML [1]: + | Expression score OSCAR [1]: + | Expression score GB [1]: + | Expression score NHL [1]: ++ | Expression score OC [1]: ++ | Expression score SCLC [1]: ++ | Expression score UBC [1]: + | Target coverage: over-expression category of source gene, LAML [2]: A (>=50% of tumors above the cutoff) | Target coverage: over-expression category of source gene, BLCA [2]: A (>=50% of tumors above the cutoff) | Target coverage: over-expression category of source gene, BRCA [2]: B (>= 20% of tumors above the cutoff, but <50%) | Target coverage: over-expression category of source gene, CHOL [2]: A (>=50% of tumors above the cutoff) | Target coverage: over-expression category of source gene, KIRC [2]: A (>=50% of tumors above the cutoff) | Target coverage: over-expression category of source gene, READ [2]: B (>= 20% of tumors above the cutoff, but <50%) | Target coverage: over-expression category of source gene, COAD [2]: A (>=50% of tumors above the cutoff) | Target coverage: over-expression category of source gene, ESCA [2]: A (>=50% of tumors above the cutoff) | Target coverage: over-expression category of source gene, GBM [2]: A (>=50% of tumors above the cutoff) | Target coverage: over-expression category of source gene, LIHC [2]: B (>= 20% of tumors above the cutoff, but <50%) | Target coverage: over-expression category of source gene, LGG [2]: C (>=5% of tumors above the cutoff, but <20%) | Target coverage: over-expression category of source gene, LUAD [2]: B (>= 20% of tumors above the cutoff, but <50%) | Target coverage: over-expression category of source gene, LUSC [2]: A (>=50% of tumors above the cutoff) | Target coverage: over-expression category of source gene, DLBC [2]: A (>=50% of tumors above the cutoff) | Target coverage: over-expression category of source gene, OV [2]: A (>=50% of tumors above the cutoff) | Target coverage: over-expression category of source gene, PAAD [2]: C (>=5% of tumors above the cutoff, but <20%) | Target coverage: over-expression category of source gene, KIRP [2]: B (>= 20% of tumors above the cutoff, but <50%) | Target coverage: over-expression category of source gene, SKCM [2]: A (>=50% of tumors above the cutoff) | Target coverage: over-expression category of source gene, STAD [2]: A (>=50% of tumors above the cutoff) | Target coverage: over-expression category of source gene, UCEC [2]: A (>=50% of tumors above the cutoff) | Presentation score GC ([3]; HLA-A*24 peptides, gastric cancer (N = 44) vs panel of normal tissues (N = 70)): ++++ | Presentation score GB ([3]; HLA-A*24 peptides): ++++ | Presentation score HCC ([3]; HLA-A*24 peptides, hepatocellular carcinoma (N = 15) vs panel of normal tissues (N = 70)): ++++ | Presentation score NSCLC ([3]; HLA-A*24 peptides): ++++ | Peptide Presentation on cancer entities [3]: GB, GC, NSCLC, HCC

272: peptide found in NCAPD2 (gene looked up) (QYLQDAYSF; listed as Homo sapiens) [compound 272]
Expression score OSCAR [1]: + | Expression score NHL [1]: + | Expression score NSCLC ([1]; non-small cell lung cancer (N = 11) vs panel of normal tissues): + | Expression score OC [1]: ++ | Expression score SCLC [1]: + | Target coverage: over-expression category of source gene, LAML [2]: A (>=50% of tumors above the cutoff) | Target coverage: over-expression category of source gene, BLCA [2]: B (>= 20% of tumors above the cutoff, but <50%) | Target coverage: over-expression category of source gene, BRCA [2]: B (>= 20% of tumors above the cutoff, but <50%) | Target coverage: over-expression category of source gene, READ [2]: B (>= 20% of tumors above the cutoff, but <50%) | Target coverage: over-expression category of source gene, COAD [2]: B (>= 20% of tumors above the cutoff, but <50%) | Target coverage: over-expression category of source gene, ESCA [2]: A (>=50% of tumors above the cutoff) | Target coverage: over-expression category of source gene, GBM [2]: C (>=5% of tumors above the cutoff, but <20%) | Target coverage: over-expression category of source gene, LUAD [2]: C (>=5% of tumors above the cutoff, but <20%) | Target coverage: over-expression category of source gene, LUSC [2]: A (>=50% of tumors above the cutoff) | Target coverage: over-expression category of source gene, DLBC [2]: B (>= 20% of tumors above the cutoff, but <50%) | Target coverage: over-expression category of source gene, OV [2]: A (>=50% of tumors above the cutoff) | Target coverage: over-expression category of source gene, SKCM [2]: B (>= 20% of tumors above the cutoff, but <50%) | Target coverage: over-expression category of source gene, STAD [2]: A (>=50% of tumors above the cutoff) | Target coverage: over-expression category of source gene, UCEC [2]: C (>=5% of tumors above the cutoff, but <20%) | Presentation score GB ([3]; HLA-A*24 peptides): ++++ | Presentation score NSCLC ([3]; HLA-A*24 peptides): ++++ | Peptide Presentation on cancer entities [3]: GB, NSCLC

274: peptide found in TAOK3 (gene looked up) (AYLHSHALI; listed as Homo sapiens) [compound 274]
Expression score AML [1]: + | Expression score GB [1]: + | Expression score NHL [1]: + | Target coverage: over-expression category of source gene, LAML [2]: A (>=50% of tumors above the cutoff) | Target coverage: over-expression category of source gene, ESCA [2]: C (>=5% of tumors above the cutoff, but <20%) | Target coverage: over-expression category of source gene, PRAD ([2]; Prostate adenocarcinoma (N = 498)): B (>= 20% of tumors above the cutoff, but <50%) | Target coverage: over-expression category of source gene, STAD [2]: B (>= 20% of tumors above the cutoff, but <50%) | Presentation score NSCLC ([3]; HLA-A*24 peptides): ++++ | Presentation score PCA ([3]; HLA-A*24 peptides): ++++ | Peptide Presentation on cancer entities [3]: NSCLC, PCA

275: peptide found in ROR1 (gene looked up) (EYINQGDLHEF; listed as Homo sapiens) [compound 275]
Expression score CLL ([1]; chronic lymphocytic leukemia (N = 10) vs panel of normal tissues): + | Target coverage: over-expression category of source gene, ESCA [2]: C (>=5% of tumors above the cutoff, but <20%) | Target coverage: over-expression category of source gene, OV [2]: C (>=5% of tumors above the cutoff, but <20%) | Target coverage: over-expression category of source gene, STAD [2]: C (>=5% of tumors above the cutoff, but <20%) | Presentation score NSCLC ([3]; HLA-A*24 peptides): ++++ | Presentation score PCA ([3]; HLA-A*24 peptides): ++++ | Peptide Presentation on cancer entities [3]: NSCLC, PCA

276: peptide found in TYMS (gene looked up) (VYGFQWRHF; listed as Homo sapiens) [compound 276]
Expression score AML [1]: + | Expression score OSCAR [1]: + | Expression score GB [1]: + | Expression score NHL [1]: ++ | Expression score OC [1]: + | Expression score SCLC [1]: ++ | Expression score UBC [1]: + | Target coverage: over-expression category of source gene, LAML [2]: A (>=50% of tumors above the cutoff) | Target coverage: over-expression category of source gene, BLCA [2]: A (>=50% of tumors above the cutoff) | Target coverage: over-expression category of source gene, BRCA [2]: B (>= 20% of tumors above the cutoff, but <50%) | Target coverage: over-expression category of source gene, CHOL [2]: B (>= 20% of tumors above the cutoff, but <50%) | Target coverage: over-expression category of source gene, KIRC [2]: A (>=50% of tumors above the cutoff) | Target coverage: over-expression category of source gene, READ [2]: B (>= 20% of tumors above the cutoff, but <50%) | Target coverage: over-expression category of source gene, COAD [2]: A (>=50% of tumors above the cutoff) | Target coverage: over-expression category of source gene, ESCA [2]: A (>=50% of tumors above the cutoff) | Target coverage: over-expression category of source gene, GBM [2]: A (>=50% of tumors above the cutoff) | Target coverage: over-expression category of source gene, LIHC [2]: B (>= 20% of tumors above the cutoff, but <50%) | Target coverage: over-expression category of source gene, LGG [2]: C (>=5% of tumors above the cutoff, but <20%) | Target coverage: over-expression category of source gene, LUAD [2]: B (>= 20% of tumors above the cutoff, but <50%) | Target coverage: over-expression category of source gene, LUSC [2]: A (>=50% of tumors above the cutoff) | Target coverage: over-expression category of source gene, DLBC [2]: A (>=50% of tumors above the cutoff) | Target coverage: over-expression category of source gene, OV [2]: A (>=50% of tumors above the cutoff) | Target coverage: over-expression category of source gene, PAAD [2]: C (>=5% of tumors above the cutoff, but <20%) | Target coverage: over-expression category of source gene, KIRP [2]: B (>= 20% of tumors above the cutoff, but <50%) | Target coverage: over-expression category of source gene, SKCM [2]: A (>=50% of tumors above the cutoff) | Target coverage: over-expression category of source gene, STAD [2]: A (>=50% of tumors above the cutoff) | Target coverage: over-expression category of source gene, UCEC [2]: B (>= 20% of tumors above the cutoff, but <50%) | Presentation score NSCLC ([3]; HLA-A*24 peptides): ++++ | Peptide Presentation on cancer entities [3]: NSCLC

Source: patent publication US20170189504A1, “NOVEL PEPTIDES AND COMBINATION OF PEPTIDES FOR USE IN IMMUNOTHERAPY AGAINST VARIOUS CANCERS” (immatics biotechnologies GmbH, priority 2015, published 2017)
